No constants are given. Whether binding was seen depends on the method and setting. In cells and extracts the contact can be indirect. A result given as binding can be weak or reduced; the word gives no strength.

In the assay the target is T1, dAtrxL (long isoform of Drosophila dAtrx/Xnp) (Drosophila melanogaster (endogenous in embryos and S2R+ cells)) (UniProt Q9GQN5).
T1 sequence: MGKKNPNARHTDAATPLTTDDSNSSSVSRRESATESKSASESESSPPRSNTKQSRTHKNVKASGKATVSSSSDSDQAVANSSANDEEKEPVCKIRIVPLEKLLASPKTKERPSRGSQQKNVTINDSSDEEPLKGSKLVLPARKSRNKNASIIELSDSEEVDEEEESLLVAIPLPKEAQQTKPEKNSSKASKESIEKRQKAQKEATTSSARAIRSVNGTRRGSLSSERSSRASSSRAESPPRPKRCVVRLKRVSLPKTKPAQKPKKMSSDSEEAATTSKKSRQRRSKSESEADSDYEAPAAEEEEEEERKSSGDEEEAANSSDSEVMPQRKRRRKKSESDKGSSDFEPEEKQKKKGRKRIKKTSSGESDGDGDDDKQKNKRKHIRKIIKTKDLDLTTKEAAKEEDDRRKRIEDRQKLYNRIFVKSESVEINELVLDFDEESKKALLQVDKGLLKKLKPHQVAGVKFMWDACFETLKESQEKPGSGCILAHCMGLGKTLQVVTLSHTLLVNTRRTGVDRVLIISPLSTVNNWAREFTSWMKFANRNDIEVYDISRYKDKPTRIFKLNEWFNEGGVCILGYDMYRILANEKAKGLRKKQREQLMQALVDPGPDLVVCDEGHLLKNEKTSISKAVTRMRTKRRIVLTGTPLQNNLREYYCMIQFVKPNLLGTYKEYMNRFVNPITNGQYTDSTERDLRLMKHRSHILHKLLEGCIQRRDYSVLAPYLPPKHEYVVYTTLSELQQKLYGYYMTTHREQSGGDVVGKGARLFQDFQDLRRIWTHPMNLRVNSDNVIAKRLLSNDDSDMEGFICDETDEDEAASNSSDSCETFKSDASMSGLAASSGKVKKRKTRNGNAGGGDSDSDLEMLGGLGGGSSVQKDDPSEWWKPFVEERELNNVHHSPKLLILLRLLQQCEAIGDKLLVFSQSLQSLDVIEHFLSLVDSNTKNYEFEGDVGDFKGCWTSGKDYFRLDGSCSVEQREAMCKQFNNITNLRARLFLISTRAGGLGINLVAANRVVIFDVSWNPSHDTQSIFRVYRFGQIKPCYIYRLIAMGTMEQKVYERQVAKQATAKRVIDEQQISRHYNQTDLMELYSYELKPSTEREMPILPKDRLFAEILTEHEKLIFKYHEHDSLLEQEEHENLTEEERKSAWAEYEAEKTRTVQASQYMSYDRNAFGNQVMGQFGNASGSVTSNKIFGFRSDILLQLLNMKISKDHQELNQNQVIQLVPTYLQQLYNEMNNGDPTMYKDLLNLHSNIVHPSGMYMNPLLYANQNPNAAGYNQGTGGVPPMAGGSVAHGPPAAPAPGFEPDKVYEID
As to the kind of experiment: co-IP; endogenous proteins; embryo nuclear extract or S2R+ cells total extract; IP with pan-dAdd1 or anti-dAtrxL antibody, Western blot with pan-dAdd1, anti-dAtrxL, anti-dAdd1-a or anti-dAdd1-b; mock IP with an unrelated antibody. Background: A western blot detects proteins with antibodies after separation by electrophoresis.

dAdd1-b: the binding result is “binds”.

As to dAdd1-a, the binding result is listed as “binds”.

These data come from paper PMC4249797.
